Patent publication US20140004198A1, “GLP-1 PARTICLES AND COMPOSITIONS” (Novo Nordisk A/S, priority 2011, published 2014)
For at least one compound, name, drawing or mass did not settle the structure.

How the values were obtained:
[1] = Protamine binding to precipitated zinc-liraglutide complex (free liraglutide and protamine in supernatant by liquid chromatography); type: physicochemical; details: pH 7.8, 0.11 molecule of protamine per molecule of liraglutide
[2] = Zinc mediated precipitation of liraglutide at various pH-values (free liraglutide in supernatant by UV-spectroscopy); type: physicochemical

Question: For `CCCCCCCCCCCCCCCC(=O)N[C@@H](CCC(=O)NCCCC[C@H](NC(=O)[C@H](C)NC(=O)[C@H](C)NC(=O)[C@H](CCC(N)=O)NC(=O)CNC(=O)[C@H](CCC(=O)O)NC(=O)[C@H](CC(C)C)NC(=O)[C@H](Cc1ccc(O)cc1)NC(=O)[C@H](CO)NC(=O)[C@H](CO)NC(=O)[C@@H](NC(=O)[C@H](CC(=O)O)NC(=O)[C@H](CO)NC(=O)[C@@H](NC(=O)[C@H](Cc1ccccc1)NC(=O)[C@@H](NC(=O)CNC(=O)[C@H](CCC(=O)O)NC(=O)[C@H](C)NC(=O)[C@@H](N)Cc1cnc[nH]1)[C@@H](C)O)[C@@H](C)O)C(C)C)C(=O)N[C@@H](CCC(=O)O)C(=O)N[C@@H](Cc1ccccc1)C(=O)N[C@H](C(=O)N[C@@H](C)C(=O)N[C@@H](Cc1c[nH]c2ccccc12)C(=O)N[C@@H](CC(C)C)C(=O)N[C@H](C(=O)N[C@@H](CCCNC(=N)N)C(=O)NCC(=O)N[C@@H](CCCNC(=N)N)C(=O)NCC(=O)O)C(C)C)[C@@H](C)CC)C(=O)O` [liraglutide, N^ε26-[(4S)-4-carboxy-4-(hexadecanoylamino)butanoyl]-[Arg^34]-GLP-1-(7-37)-peptide], which “free protamine in the supernatant” value [1] is on record?
Answer: no free protamine

Question: What about the “minimum molar ratio of zinc to obtain 100% liraglutide precipitated” value ([2]; pH 7.0 (data not reported)) of the same compound?
Answer: 1.3

Question: What about the “minimum zinc:liraglutide molar ratio required to obtain no free liraglutide in the supernatant (100% of liraglutide precipitated)” value ([2]; pH 7.8) of the same compound?
Answer: 2.0-2.2

Question: And the “minimum zinc:liraglutide molar ratio required to obtain no free liraglutide in the supernatant” value ([2]; pH 8.0)?
Answer: 2.1-2, 2

Question: What about the “minimum zinc:liraglutide molar ratio required to obtain no free liraglutide in the supernatant” value ([2]; pH 8.2) of the same compound?
Answer: > 3
